From paper PMC11106307
No constants are given. Whether binding was seen depends on the method and setting. Binding seen in cells or lysates may run through a third protein. Some entries that bind do so weakly or less than the wild type. For part of these data: Sequences can lack the tags named with a protein.

Amino acid sequences for entries named in this document (tags omitted). A change or cut given only in a name is not applied to a line headed by its entry.
UniProt Q16665: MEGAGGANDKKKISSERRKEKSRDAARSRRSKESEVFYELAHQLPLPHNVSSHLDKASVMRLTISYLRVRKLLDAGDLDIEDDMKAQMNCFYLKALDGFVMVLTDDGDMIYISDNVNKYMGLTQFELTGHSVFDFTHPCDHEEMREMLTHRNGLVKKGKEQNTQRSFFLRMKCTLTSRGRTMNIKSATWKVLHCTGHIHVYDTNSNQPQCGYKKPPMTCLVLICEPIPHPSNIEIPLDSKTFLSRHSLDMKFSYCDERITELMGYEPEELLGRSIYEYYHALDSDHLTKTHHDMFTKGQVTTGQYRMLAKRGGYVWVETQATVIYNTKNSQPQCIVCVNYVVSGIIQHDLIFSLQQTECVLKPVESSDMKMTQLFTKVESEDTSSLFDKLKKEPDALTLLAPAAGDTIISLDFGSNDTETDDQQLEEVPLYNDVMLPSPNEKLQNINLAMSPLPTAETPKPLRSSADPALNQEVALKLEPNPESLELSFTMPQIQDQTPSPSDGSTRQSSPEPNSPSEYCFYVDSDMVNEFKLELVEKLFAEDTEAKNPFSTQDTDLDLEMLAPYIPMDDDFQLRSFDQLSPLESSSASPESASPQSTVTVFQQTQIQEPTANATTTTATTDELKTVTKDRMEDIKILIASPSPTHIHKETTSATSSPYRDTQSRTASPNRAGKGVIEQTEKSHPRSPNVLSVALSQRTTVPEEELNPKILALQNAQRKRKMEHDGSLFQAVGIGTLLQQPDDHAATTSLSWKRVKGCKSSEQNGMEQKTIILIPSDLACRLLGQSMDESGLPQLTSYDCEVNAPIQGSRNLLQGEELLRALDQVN

Legend:
[1] = molecular target: T1, Flag-TRIM1 (wild type, full length) (human (cDNA from SW480 cells)) (UniProt Q9UJV3); experiment: co-IP; SW480 cells co-transfected with the indicated plasmids; lysed in buffer A (25 mM Tris-HCl pH 7.5, 150 mM NaCl, 10% glycerol, 1% Triton X-100, protease inhibitors); anti-Flag or anti-GFP immunoprecipitation, four washes, immunoblotting
T1 sequence: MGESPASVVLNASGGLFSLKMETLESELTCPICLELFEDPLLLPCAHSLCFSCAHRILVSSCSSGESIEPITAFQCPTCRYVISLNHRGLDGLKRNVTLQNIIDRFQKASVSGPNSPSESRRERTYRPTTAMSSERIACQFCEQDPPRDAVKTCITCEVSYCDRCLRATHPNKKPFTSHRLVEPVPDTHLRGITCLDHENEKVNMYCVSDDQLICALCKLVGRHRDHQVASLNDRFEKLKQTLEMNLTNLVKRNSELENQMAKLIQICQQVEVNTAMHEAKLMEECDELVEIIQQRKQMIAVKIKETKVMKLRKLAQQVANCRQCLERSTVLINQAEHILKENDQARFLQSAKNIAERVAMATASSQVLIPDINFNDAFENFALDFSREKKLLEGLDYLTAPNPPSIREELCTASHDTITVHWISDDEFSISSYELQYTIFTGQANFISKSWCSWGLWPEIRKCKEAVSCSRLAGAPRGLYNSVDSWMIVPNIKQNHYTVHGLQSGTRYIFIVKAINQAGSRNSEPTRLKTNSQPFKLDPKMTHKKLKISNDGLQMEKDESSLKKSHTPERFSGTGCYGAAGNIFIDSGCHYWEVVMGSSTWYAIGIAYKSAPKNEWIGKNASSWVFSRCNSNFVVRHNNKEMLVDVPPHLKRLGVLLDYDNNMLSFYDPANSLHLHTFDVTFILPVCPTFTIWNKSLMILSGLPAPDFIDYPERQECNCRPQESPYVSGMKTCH

[2] = molecular target: T2, TRIM1 (endogenous) (human (endogenous in SW480)) (UniProt Q9UJV3); experiment: co-IP; endogenous proteins of SW480 cells; lysed in buffer A; anti-TRIM1 immunoprecipitation, immunoblotting
T2 sequence: T1 sequence

Substance | binding [1] | binding [2]
GFP-HIF1α (wild type) (from UniProt Q16665 1-826) | binds | –
GFP-HIF1α K214R (from UniProt Q16665 1-826) | binds | –
HIF1α (endogenous) (from UniProt Q16665 1-826) | – | binds
